“And” between values parts separate entries of the source, which are not always exact repeats. Equal values may be shown once. The inconclusive results got no clear call from the source; some entries with a clear call stand among them for comparison. Potencies of inconclusive entries are doubtful fits and often do not repeat. The source made the active and inactive calls. The calls were made as follows: active = hit-call score of the fitted dose curve at least 0.9, where 1 is the maximum; inconclusive = response in the unintended direction; inactive = score below 0.9.
How the values were obtained:
[1] = molecular target: Retinoic acid receptor alpha (Homo sapiens) (UniProt P10276); assay: ATG_RARa_TRANS: Attagene TRANS-FACTORIAL HepG2 Assay for human Retinoic Acid Receptor alpha (RARa) (AID 2283005);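 as to AC50: potency for increased reporter signal meaning RARa activation over DMSO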
Summary of the method: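 HepG2 cells transiently transfected with multiple reporter units expressing chimeric RARα-GAL4 fusion, with GAL4-UAS-driven reporters. After 24 h compound exposure, reporter mRNA induction quantified by RT-PCR and capillary electrophoresis with fluorescent labeling; gain-of-signal fitted relative to DMSO control.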

Sequences of proteins named here, by UniProt entry; tags and fusion partners are left off. A change or cut given only in a name is not applied to a line headed by its entry.
UniProt P10276, whole entry, looked up: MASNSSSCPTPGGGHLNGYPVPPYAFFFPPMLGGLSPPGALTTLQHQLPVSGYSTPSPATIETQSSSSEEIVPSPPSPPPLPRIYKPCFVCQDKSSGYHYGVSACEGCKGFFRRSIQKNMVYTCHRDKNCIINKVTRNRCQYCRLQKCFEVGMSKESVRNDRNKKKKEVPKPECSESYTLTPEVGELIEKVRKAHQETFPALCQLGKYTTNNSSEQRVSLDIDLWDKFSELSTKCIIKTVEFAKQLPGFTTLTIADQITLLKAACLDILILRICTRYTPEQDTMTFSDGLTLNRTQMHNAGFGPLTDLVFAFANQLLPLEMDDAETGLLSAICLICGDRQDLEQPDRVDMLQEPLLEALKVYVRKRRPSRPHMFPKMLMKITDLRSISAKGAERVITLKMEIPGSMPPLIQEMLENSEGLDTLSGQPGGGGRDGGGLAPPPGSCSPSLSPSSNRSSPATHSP
UniProt O75469: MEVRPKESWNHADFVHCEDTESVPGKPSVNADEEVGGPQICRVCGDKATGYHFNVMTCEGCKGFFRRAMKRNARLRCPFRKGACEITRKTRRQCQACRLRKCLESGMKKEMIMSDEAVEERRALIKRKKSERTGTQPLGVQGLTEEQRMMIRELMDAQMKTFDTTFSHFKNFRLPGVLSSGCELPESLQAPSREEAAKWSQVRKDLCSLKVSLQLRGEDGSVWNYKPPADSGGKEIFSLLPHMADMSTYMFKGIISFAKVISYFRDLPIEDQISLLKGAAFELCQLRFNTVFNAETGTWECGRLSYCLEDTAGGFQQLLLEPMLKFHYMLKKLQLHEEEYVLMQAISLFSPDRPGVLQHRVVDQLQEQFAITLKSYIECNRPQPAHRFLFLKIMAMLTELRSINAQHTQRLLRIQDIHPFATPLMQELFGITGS
UniProt P13631, whole entry, looked up: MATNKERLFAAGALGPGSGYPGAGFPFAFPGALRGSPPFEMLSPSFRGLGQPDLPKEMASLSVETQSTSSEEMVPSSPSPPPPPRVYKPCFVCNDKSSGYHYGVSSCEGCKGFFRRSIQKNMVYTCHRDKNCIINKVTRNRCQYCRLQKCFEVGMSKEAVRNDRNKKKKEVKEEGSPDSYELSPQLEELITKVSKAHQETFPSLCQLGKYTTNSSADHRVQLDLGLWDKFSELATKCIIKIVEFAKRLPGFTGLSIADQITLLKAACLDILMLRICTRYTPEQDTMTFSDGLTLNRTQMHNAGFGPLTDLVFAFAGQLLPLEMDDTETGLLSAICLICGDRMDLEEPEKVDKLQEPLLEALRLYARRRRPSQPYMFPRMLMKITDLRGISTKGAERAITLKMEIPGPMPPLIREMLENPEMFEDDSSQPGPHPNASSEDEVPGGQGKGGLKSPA
UniProt Q92753: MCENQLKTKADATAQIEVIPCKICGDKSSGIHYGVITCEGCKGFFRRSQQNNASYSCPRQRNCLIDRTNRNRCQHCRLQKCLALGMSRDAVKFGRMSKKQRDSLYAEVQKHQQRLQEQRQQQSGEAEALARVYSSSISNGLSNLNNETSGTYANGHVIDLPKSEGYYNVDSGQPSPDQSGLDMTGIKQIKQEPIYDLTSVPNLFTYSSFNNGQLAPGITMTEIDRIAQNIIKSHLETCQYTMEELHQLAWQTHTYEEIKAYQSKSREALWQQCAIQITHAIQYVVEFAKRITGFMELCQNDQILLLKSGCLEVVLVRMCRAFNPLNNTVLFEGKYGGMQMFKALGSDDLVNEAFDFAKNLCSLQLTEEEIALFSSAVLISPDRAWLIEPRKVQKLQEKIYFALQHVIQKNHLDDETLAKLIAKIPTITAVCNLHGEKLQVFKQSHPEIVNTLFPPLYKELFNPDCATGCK
UniProt P51449: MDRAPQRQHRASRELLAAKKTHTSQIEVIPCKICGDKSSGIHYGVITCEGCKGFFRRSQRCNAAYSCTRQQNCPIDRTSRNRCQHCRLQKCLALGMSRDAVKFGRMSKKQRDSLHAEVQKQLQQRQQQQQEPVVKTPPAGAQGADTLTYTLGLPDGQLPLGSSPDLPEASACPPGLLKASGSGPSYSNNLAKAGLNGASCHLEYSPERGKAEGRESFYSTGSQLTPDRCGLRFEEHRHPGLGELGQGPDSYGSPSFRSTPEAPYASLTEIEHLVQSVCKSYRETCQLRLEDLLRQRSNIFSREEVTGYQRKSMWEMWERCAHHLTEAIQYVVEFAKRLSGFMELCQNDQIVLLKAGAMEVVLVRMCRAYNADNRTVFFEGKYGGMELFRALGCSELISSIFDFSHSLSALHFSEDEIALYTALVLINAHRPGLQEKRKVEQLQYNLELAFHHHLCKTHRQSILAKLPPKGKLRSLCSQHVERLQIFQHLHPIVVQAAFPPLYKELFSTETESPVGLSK
UniProt P10827: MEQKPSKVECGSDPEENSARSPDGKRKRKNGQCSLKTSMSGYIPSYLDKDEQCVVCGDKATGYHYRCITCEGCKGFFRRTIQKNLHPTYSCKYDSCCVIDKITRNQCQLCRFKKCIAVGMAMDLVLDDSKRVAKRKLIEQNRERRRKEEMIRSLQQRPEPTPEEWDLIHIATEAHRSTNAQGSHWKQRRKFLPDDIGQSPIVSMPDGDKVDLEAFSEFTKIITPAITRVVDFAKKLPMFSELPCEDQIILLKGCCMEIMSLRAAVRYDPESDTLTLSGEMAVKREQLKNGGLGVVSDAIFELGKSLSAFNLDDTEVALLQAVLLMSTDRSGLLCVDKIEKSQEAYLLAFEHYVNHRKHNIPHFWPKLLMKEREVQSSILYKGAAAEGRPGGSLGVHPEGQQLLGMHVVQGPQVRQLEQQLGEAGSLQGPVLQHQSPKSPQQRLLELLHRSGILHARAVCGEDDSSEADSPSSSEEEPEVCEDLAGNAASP
UniProt P11473: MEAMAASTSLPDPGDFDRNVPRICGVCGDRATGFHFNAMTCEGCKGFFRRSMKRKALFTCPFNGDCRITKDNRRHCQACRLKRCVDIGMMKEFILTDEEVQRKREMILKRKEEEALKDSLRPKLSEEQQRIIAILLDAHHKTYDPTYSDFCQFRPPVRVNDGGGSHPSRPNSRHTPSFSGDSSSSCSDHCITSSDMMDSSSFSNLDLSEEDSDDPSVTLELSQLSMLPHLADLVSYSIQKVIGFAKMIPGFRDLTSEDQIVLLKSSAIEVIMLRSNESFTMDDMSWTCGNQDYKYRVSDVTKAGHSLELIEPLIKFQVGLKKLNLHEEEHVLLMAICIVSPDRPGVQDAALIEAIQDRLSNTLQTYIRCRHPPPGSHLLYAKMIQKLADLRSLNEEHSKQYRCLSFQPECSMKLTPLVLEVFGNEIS
UniProt P28702: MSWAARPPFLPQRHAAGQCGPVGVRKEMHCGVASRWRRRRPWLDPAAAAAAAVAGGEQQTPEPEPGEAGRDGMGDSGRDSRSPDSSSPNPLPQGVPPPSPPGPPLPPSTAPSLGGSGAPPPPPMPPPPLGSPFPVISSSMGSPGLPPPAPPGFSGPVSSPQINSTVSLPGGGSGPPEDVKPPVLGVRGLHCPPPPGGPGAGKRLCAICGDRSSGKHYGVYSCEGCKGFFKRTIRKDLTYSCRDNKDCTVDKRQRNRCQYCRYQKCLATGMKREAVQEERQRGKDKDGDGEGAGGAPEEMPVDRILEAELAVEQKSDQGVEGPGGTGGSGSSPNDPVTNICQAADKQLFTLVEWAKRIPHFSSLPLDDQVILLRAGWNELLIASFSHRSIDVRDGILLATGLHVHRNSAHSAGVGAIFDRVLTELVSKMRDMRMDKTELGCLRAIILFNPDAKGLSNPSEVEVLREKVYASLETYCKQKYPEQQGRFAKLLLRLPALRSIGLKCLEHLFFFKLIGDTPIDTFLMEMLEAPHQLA
UniProt P19793: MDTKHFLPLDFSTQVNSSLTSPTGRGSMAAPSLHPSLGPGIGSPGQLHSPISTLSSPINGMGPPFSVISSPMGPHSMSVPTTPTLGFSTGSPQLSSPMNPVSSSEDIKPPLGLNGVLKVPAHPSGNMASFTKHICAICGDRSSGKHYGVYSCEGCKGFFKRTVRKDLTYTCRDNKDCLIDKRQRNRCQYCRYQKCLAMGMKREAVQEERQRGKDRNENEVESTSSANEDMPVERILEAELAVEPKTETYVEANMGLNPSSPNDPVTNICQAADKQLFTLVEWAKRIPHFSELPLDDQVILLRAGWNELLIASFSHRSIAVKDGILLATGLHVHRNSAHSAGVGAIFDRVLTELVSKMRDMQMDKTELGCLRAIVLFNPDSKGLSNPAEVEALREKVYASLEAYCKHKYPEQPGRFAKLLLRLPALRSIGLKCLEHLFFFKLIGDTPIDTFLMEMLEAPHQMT
UniProt P08684, whole entry, looked up: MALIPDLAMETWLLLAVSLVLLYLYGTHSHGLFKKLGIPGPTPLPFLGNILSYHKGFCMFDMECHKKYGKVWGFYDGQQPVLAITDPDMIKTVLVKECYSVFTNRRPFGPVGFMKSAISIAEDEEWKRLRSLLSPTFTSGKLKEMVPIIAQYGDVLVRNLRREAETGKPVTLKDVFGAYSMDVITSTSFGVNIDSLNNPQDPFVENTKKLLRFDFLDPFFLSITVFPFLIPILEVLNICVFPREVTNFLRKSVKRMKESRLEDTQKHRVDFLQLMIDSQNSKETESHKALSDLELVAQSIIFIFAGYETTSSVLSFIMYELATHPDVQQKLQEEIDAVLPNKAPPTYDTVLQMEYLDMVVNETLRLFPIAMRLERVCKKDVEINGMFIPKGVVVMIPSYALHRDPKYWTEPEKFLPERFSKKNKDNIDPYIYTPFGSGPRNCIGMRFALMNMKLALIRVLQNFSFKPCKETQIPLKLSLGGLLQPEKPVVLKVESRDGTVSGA
UniProt P11509: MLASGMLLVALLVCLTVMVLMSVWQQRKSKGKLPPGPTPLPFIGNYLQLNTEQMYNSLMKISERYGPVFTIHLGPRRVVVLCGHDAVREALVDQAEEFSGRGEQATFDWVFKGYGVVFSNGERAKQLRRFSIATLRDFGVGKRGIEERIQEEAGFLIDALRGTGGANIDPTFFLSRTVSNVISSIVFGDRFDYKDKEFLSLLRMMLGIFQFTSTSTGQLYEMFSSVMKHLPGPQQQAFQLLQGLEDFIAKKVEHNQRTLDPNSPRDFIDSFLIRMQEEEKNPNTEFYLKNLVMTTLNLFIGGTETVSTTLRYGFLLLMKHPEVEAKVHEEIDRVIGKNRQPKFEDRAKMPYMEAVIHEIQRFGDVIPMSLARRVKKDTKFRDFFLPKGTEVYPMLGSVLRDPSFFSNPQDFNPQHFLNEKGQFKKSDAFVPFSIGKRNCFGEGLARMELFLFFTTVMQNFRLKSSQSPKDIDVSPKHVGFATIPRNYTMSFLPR

[2] = molecular target: Nuclear receptor subfamily 1 group I member 2 (Homo sapiens) (UniProt O75469); assay: ATG_PXR_TRANS: Attagene TRANS-FACTORIAL HepG2 Assay for human Pregnane X Receptor (PXR) (AID 2283008)
Summary of the method: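 Multiplexed TRANS reporter panel in HepG2; this component tracks PXR-Gal4-driven reporter mRNA after 24 h dosing, measured by RT-PCR with capillary electrophoresis fluorescence, fitted against DMSO.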

[3] = molecular target: human Retinoic Acid Receptor gamma (RARg), RARG (gene 5916) (UniProt P13631); assay: ATG_RARg_TRANS: Attagene TRANS-FACTORIAL HepG2 Assay for human Retinoic Acid Receptor gamma (RARg) (AID 2283009);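 as to AC50: AC50 is for reporter induction above DMSO meaning RARg activation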
Summary of the method: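 Gain-of-signal relative to DMSO is reported from fluorescent capillary electrophoresis of RT-PCR reporter products. These came from HepG2 cells expressing transfected RARg-GAL4 chimeras with UAS reporters, harvested 24 h after dosing.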

[4] = molecular target: human RAR-related Orphan Receptor beta (RORb), RORB (gene 6096) (UniProt Q92753); assay: ATG_RORb_TRANS: Attagene TRANS-FACTORIAL HepG2 Assay for human RAR-related Orphan Receptor beta (RORb) (AID 2283010);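 as to AC50: potency for increased reporter mRNA meaning activation of RORb-Gal4 chimera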
Summary of the method: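 Multiplexed transcription-factor reporter assay: HepG2 cells transiently carrying NR-Gal4/GAL4-UAS constructs, 24 h treatment, mRNA quantified by RT-PCR plus capillary electrophoresis fluorescence; activity scored as induction over DMSO.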

[5] = molecular target: human RAR-related Orphan Receptor gamma (RORg), RORC (gene 6097) (UniProt P51449); assay: ATG_RORg_TRANS: Attagene TRANS-FACTORIAL HepG2 Assay for human RAR-related Orphan Receptor gamma (RORg) (AID 2283011);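 as to AC50: potency for induction of reporter transcripts above DMSO so activators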
Summary of the method: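 HepG2 cells transiently transfected with GAL4-UAS reporter units and chimeric RORg-Gal4 construct; after 24 h chemical exposure, reporter mRNA measured by RT-PCR with fluorescent capillary electrophoresis, gain of signal fitted against DMSO.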

[6] = molecular target: human Thyroid Receptor alpha (THRa1), THRA (gene 7067) (UniProt P10827); assay: ATG_THRa1_TRANS: Attagene TRANS-FACTORIAL HepG2 Assay for human Thyroid Receptor alpha (THRa1) (AID 2283014)
Summary of the method: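 HepG2 cells transiently transfected with chimeric NR-Gal4 and GAL4-UAS reporter units, dosed 24 h. Reporter mRNA quantified by RT-PCR, fluorescent labeling, HpaI digestion and capillary electrophoresis; gain-of-signal fit versus DMSO.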

[7] = molecular target: human Vitamin D Receptor (VDR), VDR (gene 7421) (UniProt P11473); assay: ATG_VDR_TRANS: Attagene TRANS-FACTORIAL HepG2 Assay for human Vitamin D Receptor (VDR) (AID 2283022)
Summary of the method: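 HepG2 cells were transiently transfected with GAL4-UAS reporter units and a chimeric VDR-Gal4 construct, then dosed for 24 hours. Reporter mRNA was quantified by RT-PCR, fluorescent labeling, HpaI digestion and capillary electrophoresis; gain of signal analysed vs DMSO.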

[8] = molecular target: human Retinoid X Receptor beta (RXRb), RXRB (gene 6257) (UniProt P28702); assay: ATG_RXRb_TRANS: Attagene TRANS-FACTORIAL HepG2 Assay for human Retinoid X Receptor beta (RXRb) (AID 2283013)
Summary of the method: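 After a 24 h incubation with test chemical, transfected HepG2 cells carrying NR-Gal4 fusions and GAL4-UAS reporter transcription units yield RNA whose reporter cDNA is FAM-labelled, HpaI-cut and sized by capillary electrophoresis; increases over DMSO are scored.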

[9] = molecular target: Retinoic acid receptor RXR-alpha (Homo sapiens) (UniProt P19793); assay: ATG_RXRa_TRANS: Attagene TRANS-FACTORIAL HepG2 Assay for human Retinoid X Receptor alpha (RXRa) (AID 2283012)
Summary of the method: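 Chimeric NR-GAL4 trans-activation in HepG2, 24 h treatment; reporter transcripts quantified by fluorescence on capillary electrophoresis, analysed for upward change from DMSO.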

[10] = molecular target: Cytochrome P450 3A4 (Homo sapiens) (UniProt P08684); assay: NVS_ADME_hCYP3A4: NovaScreen (NVS) CYP450-related Enzyme Activity (ADME) Assay for human CYP3A4 (AID 2283110)
Summary of the method: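 Activity is derived from decreased fluorescence intensity relative to acetonitrile, measured 0.33 hour after dosing insect-cell-expressed CYP3A4 in a cell-free format. Screening used 10 uM in duplicate before concentration-response follow-up.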

[11] = molecular target: human CYP2A6, CYP2A6 (gene 1548) (UniProt P11509); assay: NVS_ADME_hCYP2A6: NovaScreen (NVS) CYP450-related Enzyme Activity (ADME) Assay for human CYP2A6 (AID 2283099)
Summary of the method: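 Recombinant human CYP2A6 expressed in insect cells, cell-free; fluorogenic substrate turnover read by fluorescence intensity 0.5 h after dosing. Primary screen 10 uM in duplicate, then concentration-response up to 20 uM; acetonitrile as negative control.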

With `Cc1ccc(C(=O)Cl)cc1` the outcome [1] was “inactive”, the AC50 [2] was inconclusive: 6.18 µM and the AC50 [3] was inconclusive: 100 µM. The outcome [4] was “inactive”, the outcome [5] was “inactive” and the AC50 [6] was inconclusive: 100 µM. The AC50 [7] was inconclusive: 1.81 µM.

With `C=C(C)C#N` the outcome [1] was “inactive”, the AC50 [2] was inconclusive: 100 µM and the AC50 [3] was inconclusive: 100 µM. For the same molecule, the outcome [4] was “inactive”, the AC50 [8] was inconclusive: 0.0125 µM and the AC50 [6] was inconclusive: 100 µM. The AC50 [7] was inconclusive: 100 µM.

In the case of `[Cl][Sn]([c]1ccccc1)([c]1ccccc1)[c]1ccccc1`, the AC50 [1] is reported as inconclusive: 0.0527 µM, the AC50 [2] is reported as inconclusive: 0.925 µM and the AC50 [3] is reported as inconclusive: 0.0202 µM. The AC50 [4] was inconclusive: 0.00546 µM, the AC50 [9] was active: 0.233 µM and the AC50 [8] was active: 0.000965 µM. The outcome [7] was “inactive” and the AC50 [10] was inconclusive: 1.25 µM.

`CCOC(=O)Cc1ccccc1` was tested, and the AC50 [1] was inconclusive: 16.2 µM, the AC50 [2] was inconclusive: 100 µM and the AC50 [3] was inconclusive: 100 µM. The outcome [4] was “inactive”, the AC50 [5] was inconclusive: 100 µM and the AC50 [8] was inconclusive: 153 µM. The outcome [7] was “inactive”.

In the case of `O=C1CCCO1`, the AC50 [1] is reported as inconclusive: 100 µM, the AC50 [2] is reported as inconclusive: 100 µM and the AC50 [3] is reported as inconclusive: 100 µM. The AC50 [4] was inconclusive: 100 µM, the outcome [5] was “inactive” and the AC50 [8] was inconclusive: 26.5 µM. For the same molecule, the outcome [6] was “inactive”, the outcome [7] was “inactive” and the AC50 [11] was inconclusive: 10 µM.

With `Cc1ccc(CCl)cc1` the AC50 [1] was inconclusive: 20.2 µM, the AC50 [2] was inconclusive: 0.674 µM and the AC50 [3] was inconclusive: 6.81 µM. For the same molecule, the AC50 [4] was inconclusive: 0.0823 µM, the AC50 [8] was inconclusive: 19.8 µM and the outcome [6] was “inactive”. The AC50 [7] was inconclusive: 2.97 µM.

In the case of `CNC(=O)CSP(=O)(OC)OC`, the AC50 [1] is reported as inconclusive: 100 µM, the AC50 [2] is reported as inconclusive: 58.1 µM and the AC50 [3] is reported as inconclusive: 179 µM. For the same molecule, the AC50 [4] was inconclusive: 100 µM, the AC50 [9] was inconclusive: 100 µM and the AC50 [8] was inconclusive: 40.9 µM.

`FC(F)(F)C(F)(C(F)(F)F)C(F)(F)C(F)(F)CC1CO1` (configuration not stated) was tested, and the outcome [1] was “inactive”, the outcome [2] was “inactive” and the outcome [3] was “inactive”. For the same molecule, the AC50 [4] was inconclusive: 50 µM, the AC50 [8] was inconclusive: 50 µM and the outcome [6] was “inactive”. For the same molecule, the outcome [7] was “inactive”.

With `[2H]C1([2H])[n+]2ccccc2-c2cccc[n+]2C1([2H])[2H]` the AC50 [1] was inconclusive: 50 µM, the AC50 [2] was inconclusive: 50 µM and the AC50 [3] was inconclusive: 11.9 µM. The AC50 [4] was inconclusive: 50 µM, the AC50 [9] was inconclusive: 90.5 µM and the AC50 [6] was inconclusive: 0.163 µM.

With `Cc1cc2c3c(c1)C(c1ccccc1)=N[C@@H](NC(=O)c1ccncc1)C(=O)N3CC2` the AC50 [1] was inconclusive: 16.1 µM, the AC50 [2] was active: 2.54 µM and the outcome [3] was “inactive”. The outcome [4] was “inactive”, the outcome [5] was “inactive” and the AC50 [8] was inconclusive: 26.8 µM. The AC50 [6] was inconclusive: 38 µM and the outcome [10] was “inactive”.

`COc1nc(NC(C)C)nc(NC(C)C)n1` was tested, and the outcome [1] was “inactive”, the AC50 [2] was inconclusive: 100 µM and the outcome [3] was “inactive”. For the same molecule, the outcome [4] was “inactive”, the AC50 [9] was inconclusive: 100 µM and the AC50 [8] was inconclusive: 50 µM and inconclusive: 162 µM. The outcome [6] was “inactive” and the AC50 [7] was inconclusive: 100 µM.

Source: PubChem BioAssay (EPA / NIEHS)
